PubChem BioAssay AID493246 – Drosophila RNAi Screening Center | 2011
Assay: 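Genes fly cells need to grow and stay alive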 (primary screen). Cell system: Drosophila Kc and S2R+ cells. Reagents: long dsRNA against Drosophila genes. Read-out: 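Cell number per well after knock-down, printed as raw plate values; calls were based on per-plate z-scores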. Direction: Kc cell number and S2R+ cell number: higher = more cells remaining. Rule for the call: 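Counted as a hit if cell number falls by a z-score of at least 3 within its plate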.
The screen tested about 21,000 reagents; shown is a random part of those with a known target gene and a result. Of all reagents, 429 (2%) got an active call. 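Values are raw and not normalised between plates; calls rest on per-plate z-scores that were not deposited.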 A number with no mark means an inactive call. Not stated in the record: the amount of reagent, the time to read-out.

With knock-down of CG42271 [DRSC19809], the screen gave Kc cell number, rep 1 = 6.01e5; S2R+ cell number, rep 1 = 7.22e5. With knock-down of dimm (dimmed) [DRSC03100], the record shows Kc cell number, rep 1 = 1.55e6; Kc cell number, rep 2 = 1.67e6; S2R+ cell number, rep 1 = 1.35e6; S2R+ cell number, rep 2 = 4.99e5. PGRP-LE (Peptidoglycan recognition protein LE) [DRSC20137] gave Kc cell number, rep 1 = 6.12e5; S2R+ cell number, rep 1 = 8.98e5. With knock-down of CG12511 [DRSC02171], the screen gave Kc cell number, rep 1 = 1.77e6; Kc cell number, rep 2 = 2.06e6; S2R+ cell number, rep 1 = 1.14e6; S2R+ cell number, rep 2 = 1.30e6. After knock-down of Cpr49Ac (Cuticular protein 49Ac) [DRSC07199], the screen gave Kc cell number, rep 1 = 1.44e6; Kc cell number, rep 2 = 1.49e6; S2R+ cell number, rep 1 = 1.17e6; S2R+ cell number, rep 2 = 1.23e6. Against CG8665 [DRSC03098], the entry reads Kc cell number, rep 1 = 1.70e6; Kc cell number, rep 2 = 1.85e6; S2R+ cell number, rep 1 = 1.56e6; S2R+ cell number, rep 2 = 5.22e5.

For CG14983 [DRSC08441] the deposit lists Kc cell number, rep 1 = 1.36e6; Kc cell number, rep 2 = 1.33e6; S2R+ cell number, rep 1 = 9.96e5; S2R+ cell number, rep 2 = 1.15e6. Tsp42Ep (Tetraspanin 42Ep) [DRSC06871] gave Kc cell number, rep 1 = 1.51e6; Kc cell number, rep 2 = 1.66e6; S2R+ cell number, rep 1 = 1.15e6; S2R+ cell number, rep 2 = 1.22e6. Depletion of CG32461 [DRSC11594] resulted in: Kc cell number, rep 1 = 1.56e6; Kc cell number, rep 2 = 1.62e6; S2R+ cell number, rep 1 = 1.16e6; S2R+ cell number, rep 2 = 1.35e6. Silencing of CG4009 [DRSC15536] gave: Kc cell number, rep 1 = 1.32e6; Kc cell number, rep 2 = 1.45e6; S2R+ cell number, rep 1 = 1.07e6; S2R+ cell number, rep 2 = 1.15e6. With knock-down of CG32087 [DRSC10806] the results were Kc cell number, rep 1 = 1.32e6; Kc cell number, rep 2 = 1.42e6; S2R+ cell number, rep 1 = 1.21e6; S2R+ cell number, rep 2 = 1.28e6. For CG3434 [DRSC10365], the entry reads Kc cell number, rep 1 = 1.35e6; Kc cell number, rep 2 = 1.43e6; S2R+ cell number, rep 1 = 1.16e6; S2R+ cell number, rep 2 = 1.18e6.

Depletion of CG12377 (retired record) [DRSC11671] gave: Kc cell number, rep 1 = 1.78e6; Kc cell number, rep 2 = 2.01e6; S2R+ cell number, rep 1 = 1.37e6; S2R+ cell number, rep 2 = 1.34e6. Against CG12377 (retired record) [DRSC11672], the values are Kc cell number, rep 1 = 1.81e6; Kc cell number, rep 2 = 1.94e6; S2R+ cell number, rep 1 = 1.32e6; S2R+ cell number, rep 2 = 1.42e6. Knock-down of Cpr35B (Cuticular protein 35B) [DRSC01949] gave: Kc cell number, rep 1 = 1.60e6; Kc cell number, rep 2 = 1.69e6; S2R+ cell number, rep 1 = 1.11e6; S2R+ cell number, rep 2 = 1.17e6. Knock-down of CG7135 [DRSC20026] came out at: Kc cell number, rep 1 = 1.69e6; Kc cell number, rep 2 = 1.65e6; S2R+ cell number, rep 1 = 1.15e6; S2R+ cell number, rep 2 = 1.29e6. For mthl11 (methuselah-like 11) [DRSC12779] the deposit lists Kc cell number, rep 1 = 1.39e6; Kc cell number, rep 2 = 1.36e6; S2R+ cell number, rep 1 = 1.02e6; S2R+ cell number, rep 2 = 1.17e6. G6P (Glucose-6-Phosphatase) [DRSC00414] scored Kc cell number, rep 1 = 1.56e6; Kc cell number, rep 2 = 1.60e6; S2R+ cell number, rep 1 = 1.05e6; S2R+ cell number, rep 2 = 1.18e6.

Depletion of CanB (Calcineurin B) [DRSC18449] gave: Kc cell number, rep 1 = 1.46e6; Kc cell number, rep 2 = 1.54e6; S2R+ cell number, rep 1 = 1.00e6; S2R+ cell number, rep 2 = 1.21e6. For CG15820 [DRSC08480] the deposit lists Kc cell number, rep 1 = 1.28e6; Kc cell number, rep 2 = 1.43e6; S2R+ cell number, rep 1 = 1.17e6; S2R+ cell number, rep 2 = 1.18e6. Against sni (sniffer) [DRSC17770] the deposit lists Kc cell number, rep 1 = 5.48e5; S2R+ cell number, rep 1 = 8.46e5.
